Paper PMC8054397
Results are given in words; binding and its absence hold for the method and conditions named. Binding seen in cells or lysates may run through a third protein. Some entries that bind do so weakly or less than the wild type.

Sequences of proteins named here, by UniProt entry; tags and fusion partners are left off.
UniProt Q13315: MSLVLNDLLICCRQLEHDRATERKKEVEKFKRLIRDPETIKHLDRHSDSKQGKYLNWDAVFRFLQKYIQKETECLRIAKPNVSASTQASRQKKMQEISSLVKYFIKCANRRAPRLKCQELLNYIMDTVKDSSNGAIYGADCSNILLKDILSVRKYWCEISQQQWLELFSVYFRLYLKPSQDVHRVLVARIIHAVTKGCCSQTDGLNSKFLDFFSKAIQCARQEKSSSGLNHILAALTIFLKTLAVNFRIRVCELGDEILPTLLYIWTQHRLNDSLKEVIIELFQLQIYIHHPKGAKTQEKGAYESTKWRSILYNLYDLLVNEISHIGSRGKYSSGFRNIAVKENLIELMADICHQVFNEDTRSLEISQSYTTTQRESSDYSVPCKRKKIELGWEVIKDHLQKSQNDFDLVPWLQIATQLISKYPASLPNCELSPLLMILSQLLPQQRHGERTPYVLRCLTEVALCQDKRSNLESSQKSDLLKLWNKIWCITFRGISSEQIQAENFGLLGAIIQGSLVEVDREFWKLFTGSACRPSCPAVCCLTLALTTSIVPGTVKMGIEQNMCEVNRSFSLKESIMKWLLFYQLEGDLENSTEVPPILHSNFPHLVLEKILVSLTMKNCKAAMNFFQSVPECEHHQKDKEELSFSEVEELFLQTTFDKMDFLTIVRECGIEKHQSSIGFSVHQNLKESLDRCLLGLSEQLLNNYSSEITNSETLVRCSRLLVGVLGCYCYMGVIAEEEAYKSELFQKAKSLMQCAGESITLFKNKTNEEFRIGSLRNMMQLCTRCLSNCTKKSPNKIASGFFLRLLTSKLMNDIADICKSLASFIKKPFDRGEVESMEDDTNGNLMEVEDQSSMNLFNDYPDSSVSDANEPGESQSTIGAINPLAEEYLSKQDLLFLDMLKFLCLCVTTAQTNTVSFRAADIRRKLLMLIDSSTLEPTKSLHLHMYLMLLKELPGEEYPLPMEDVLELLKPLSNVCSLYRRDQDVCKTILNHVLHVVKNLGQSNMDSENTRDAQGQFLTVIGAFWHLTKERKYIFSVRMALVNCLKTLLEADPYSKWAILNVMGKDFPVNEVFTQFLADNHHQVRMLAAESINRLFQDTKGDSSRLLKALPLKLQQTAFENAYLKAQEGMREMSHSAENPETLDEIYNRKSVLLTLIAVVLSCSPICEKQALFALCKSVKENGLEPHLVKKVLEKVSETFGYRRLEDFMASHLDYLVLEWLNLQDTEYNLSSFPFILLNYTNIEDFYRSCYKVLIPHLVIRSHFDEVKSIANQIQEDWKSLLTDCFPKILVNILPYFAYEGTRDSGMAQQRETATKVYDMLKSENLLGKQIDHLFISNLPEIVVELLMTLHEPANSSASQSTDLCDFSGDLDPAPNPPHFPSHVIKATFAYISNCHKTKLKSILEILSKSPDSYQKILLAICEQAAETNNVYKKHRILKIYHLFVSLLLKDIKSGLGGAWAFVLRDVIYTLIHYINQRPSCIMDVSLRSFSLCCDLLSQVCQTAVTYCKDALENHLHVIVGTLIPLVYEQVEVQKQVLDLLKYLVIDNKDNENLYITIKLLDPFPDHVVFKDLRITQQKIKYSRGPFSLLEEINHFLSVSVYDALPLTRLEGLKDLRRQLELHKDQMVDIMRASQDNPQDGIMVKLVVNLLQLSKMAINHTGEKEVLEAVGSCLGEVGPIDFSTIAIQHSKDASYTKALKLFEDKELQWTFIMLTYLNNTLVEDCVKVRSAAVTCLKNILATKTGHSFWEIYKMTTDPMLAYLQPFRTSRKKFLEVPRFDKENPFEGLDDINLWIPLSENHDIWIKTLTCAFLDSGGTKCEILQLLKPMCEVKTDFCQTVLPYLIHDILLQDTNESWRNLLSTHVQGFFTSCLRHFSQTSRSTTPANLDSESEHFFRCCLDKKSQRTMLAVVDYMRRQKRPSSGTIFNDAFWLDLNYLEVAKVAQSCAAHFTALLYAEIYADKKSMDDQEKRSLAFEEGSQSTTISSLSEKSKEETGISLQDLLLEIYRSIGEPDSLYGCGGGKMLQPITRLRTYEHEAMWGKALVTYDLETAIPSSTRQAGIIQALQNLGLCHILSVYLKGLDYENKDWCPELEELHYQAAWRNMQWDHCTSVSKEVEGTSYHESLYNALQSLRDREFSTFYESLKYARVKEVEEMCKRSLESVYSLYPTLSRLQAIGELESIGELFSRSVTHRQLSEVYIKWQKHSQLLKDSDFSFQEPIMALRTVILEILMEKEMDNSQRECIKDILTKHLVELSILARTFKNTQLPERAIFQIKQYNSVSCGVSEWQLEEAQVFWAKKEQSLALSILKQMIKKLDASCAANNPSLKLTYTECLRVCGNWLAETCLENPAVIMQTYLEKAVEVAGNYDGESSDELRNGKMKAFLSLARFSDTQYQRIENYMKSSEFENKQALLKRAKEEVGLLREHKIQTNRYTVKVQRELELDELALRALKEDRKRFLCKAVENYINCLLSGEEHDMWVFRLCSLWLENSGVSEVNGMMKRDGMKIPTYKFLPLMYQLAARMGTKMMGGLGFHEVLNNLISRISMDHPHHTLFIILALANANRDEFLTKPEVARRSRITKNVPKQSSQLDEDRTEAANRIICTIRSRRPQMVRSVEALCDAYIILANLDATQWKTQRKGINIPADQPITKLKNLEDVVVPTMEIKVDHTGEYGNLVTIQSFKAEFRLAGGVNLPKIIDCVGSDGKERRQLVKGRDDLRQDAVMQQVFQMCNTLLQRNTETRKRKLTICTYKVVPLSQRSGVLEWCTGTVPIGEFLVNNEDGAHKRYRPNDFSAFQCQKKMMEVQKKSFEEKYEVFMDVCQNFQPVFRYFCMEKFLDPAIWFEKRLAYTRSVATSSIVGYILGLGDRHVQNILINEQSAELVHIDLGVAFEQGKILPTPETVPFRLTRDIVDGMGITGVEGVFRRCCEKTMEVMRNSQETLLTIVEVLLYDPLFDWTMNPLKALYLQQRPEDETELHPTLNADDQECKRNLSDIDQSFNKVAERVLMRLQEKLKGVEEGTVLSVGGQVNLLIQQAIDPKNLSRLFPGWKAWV
UniProt P52701: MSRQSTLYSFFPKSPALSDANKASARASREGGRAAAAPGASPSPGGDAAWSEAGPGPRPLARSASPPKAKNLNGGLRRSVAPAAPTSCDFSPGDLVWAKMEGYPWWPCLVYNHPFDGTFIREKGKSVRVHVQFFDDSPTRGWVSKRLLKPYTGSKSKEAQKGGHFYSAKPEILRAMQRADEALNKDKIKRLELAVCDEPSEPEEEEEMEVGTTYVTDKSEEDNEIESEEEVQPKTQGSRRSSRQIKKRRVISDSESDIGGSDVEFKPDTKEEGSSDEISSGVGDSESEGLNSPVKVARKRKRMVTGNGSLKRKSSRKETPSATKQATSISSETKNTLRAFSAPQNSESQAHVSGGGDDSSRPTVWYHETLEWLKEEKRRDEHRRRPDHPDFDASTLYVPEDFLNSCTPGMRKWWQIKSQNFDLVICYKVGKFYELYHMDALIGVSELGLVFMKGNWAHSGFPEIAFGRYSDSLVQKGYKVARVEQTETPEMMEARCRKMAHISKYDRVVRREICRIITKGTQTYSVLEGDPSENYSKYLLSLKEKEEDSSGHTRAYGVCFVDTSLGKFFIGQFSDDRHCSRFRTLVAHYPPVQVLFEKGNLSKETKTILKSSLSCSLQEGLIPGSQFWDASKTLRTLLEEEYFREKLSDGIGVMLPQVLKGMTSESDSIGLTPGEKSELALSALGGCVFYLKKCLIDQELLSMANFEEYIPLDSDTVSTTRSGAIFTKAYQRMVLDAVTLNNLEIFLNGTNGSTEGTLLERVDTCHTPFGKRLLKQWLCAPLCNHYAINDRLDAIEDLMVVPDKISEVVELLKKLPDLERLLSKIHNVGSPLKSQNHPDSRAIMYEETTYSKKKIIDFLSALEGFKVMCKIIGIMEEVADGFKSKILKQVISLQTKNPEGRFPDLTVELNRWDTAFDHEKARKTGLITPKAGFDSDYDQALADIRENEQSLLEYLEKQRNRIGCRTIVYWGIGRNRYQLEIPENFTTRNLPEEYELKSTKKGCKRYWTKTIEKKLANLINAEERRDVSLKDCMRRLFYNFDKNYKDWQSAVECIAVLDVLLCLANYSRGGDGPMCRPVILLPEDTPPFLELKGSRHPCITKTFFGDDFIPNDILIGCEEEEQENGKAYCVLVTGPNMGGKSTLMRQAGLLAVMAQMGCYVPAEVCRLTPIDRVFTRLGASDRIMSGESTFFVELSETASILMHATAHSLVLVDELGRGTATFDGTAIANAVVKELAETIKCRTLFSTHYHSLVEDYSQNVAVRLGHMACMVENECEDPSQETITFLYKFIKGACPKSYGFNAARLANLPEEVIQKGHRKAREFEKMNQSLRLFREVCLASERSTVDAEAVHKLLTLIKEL
UniProt P20585: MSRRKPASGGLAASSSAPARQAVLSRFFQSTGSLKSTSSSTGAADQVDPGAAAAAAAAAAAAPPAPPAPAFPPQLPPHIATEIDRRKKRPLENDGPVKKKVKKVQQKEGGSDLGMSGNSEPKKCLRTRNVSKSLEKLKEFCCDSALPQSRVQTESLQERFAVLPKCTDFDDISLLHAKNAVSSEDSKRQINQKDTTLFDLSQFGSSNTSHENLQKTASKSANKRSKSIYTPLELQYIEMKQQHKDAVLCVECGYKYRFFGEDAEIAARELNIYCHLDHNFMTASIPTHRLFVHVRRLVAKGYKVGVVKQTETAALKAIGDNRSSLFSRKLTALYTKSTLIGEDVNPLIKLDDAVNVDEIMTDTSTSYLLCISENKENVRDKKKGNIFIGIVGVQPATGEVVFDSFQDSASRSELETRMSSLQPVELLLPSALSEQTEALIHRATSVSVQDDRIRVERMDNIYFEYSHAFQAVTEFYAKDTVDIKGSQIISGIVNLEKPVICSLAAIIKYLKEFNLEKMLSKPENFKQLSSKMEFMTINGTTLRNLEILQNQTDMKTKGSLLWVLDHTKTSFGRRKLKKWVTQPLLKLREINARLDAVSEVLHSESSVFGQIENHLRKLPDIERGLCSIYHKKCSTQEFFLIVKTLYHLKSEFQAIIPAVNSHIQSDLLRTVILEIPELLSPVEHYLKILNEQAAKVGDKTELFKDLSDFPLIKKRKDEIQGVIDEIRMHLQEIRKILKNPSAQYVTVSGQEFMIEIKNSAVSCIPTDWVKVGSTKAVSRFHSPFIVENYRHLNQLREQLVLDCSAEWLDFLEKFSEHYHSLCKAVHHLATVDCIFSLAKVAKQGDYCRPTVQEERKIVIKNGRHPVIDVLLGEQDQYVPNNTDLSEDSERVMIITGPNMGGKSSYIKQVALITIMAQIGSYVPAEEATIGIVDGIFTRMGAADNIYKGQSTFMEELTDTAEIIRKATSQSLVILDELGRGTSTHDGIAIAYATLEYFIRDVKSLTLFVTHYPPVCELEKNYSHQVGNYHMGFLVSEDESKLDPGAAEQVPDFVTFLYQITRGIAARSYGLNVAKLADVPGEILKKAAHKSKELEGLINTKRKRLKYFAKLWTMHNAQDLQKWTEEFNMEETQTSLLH

Molecular target: ATM (human (endogenous in T24 and UMUC3)) (UniProt Q13315)
Assay: co-IP; anti-ATM antibody adsorbed to protein A/G agarose, 4 h at 4 °C, lysates of T24 and UMUC3 cells in Co-IP buffer, three washes, Western blot

Substance | binding
MSH6 (from UniProt P52701 1-1360) | binds
MSH3 (from UniProt P20585 1-1137) | no binding
